Assay results from article PMC1609128.
No constants are given. Whether binding was seen depends on the method and setting. Binding can be weak; no strength is given. Tags and fused reporters may be left off the sequences shown. For some of these results: Binding seen in cells or lysates may run through a third protein.

Columns and labels:
GST fusion histone H1 = test: pull-down; bacterially produced GST histone fusion proteins on glutathione-sepharose beads reacted with lysates of transfected 293T cells; beads washed 4 times in lysis buffer; Western blot; only the target purified
GST fusion histone H2A = test: as above
[1] = molecular target: histone H1 (on the Farwestern blot of histones); test: far-Western, overlay or dot blot; Western blots with 1 μg and 0.25 μg histones reacted with lysates of transfected 293T cells expressing myc-tagged CTCFL; detected by α-Myc and α-CTCFL antibodies; only the target purified

| binding (GST fusion histone H1) | binding (GST fusion histone H2A) | binding [1] | Binder |
| --- | --- | --- | --- |
| binds | binds |  | V5-tagged N-terminal CTCFL (domain or fragment, UniProt A2APF3 1-229) MAAAEVPVPSGYFTQIKEQKLKPGDLEEEKEEDGVQRVEAQEGVVKEVEAENSCLLLEARAPVESDRRILTLQTVHLESQDVHLQGLGWLSVPHSEELSGTVPEAEGILQLPSVLWLDPEPQLSLQHCVTVSIPEELYPPEELQRIHFHLLRENVLMAEENPELTPDLDESTALKKPEEDEKDQLPPQGETDKREERLLLLEMKPKEGKDDEIVLTISHLSLEEQQDPP |
| no binding | no binding |  | V5-tagged PRMT7 (enzyme, UniProt Q922X9 1-692) MKVFCGRANPTTGSLEWLEEDEHYDYHQEIARSSYADMLHDKDRNIKYYQGIRAAVSRVKDRGQKALVLDIGTGTGLLSMMAVTAGADFCYAIEVFKPMAEAAVKIVERNGFSDKIKVINKHSTEVTVGPDGDLPCRANILITELFDTELIGEGALPSYEHAHKHLVQEDCEAVPHRATVYAQLVESRRMWSWNKLFPVRVRTSLGEQVIVPPSELERCPGAPSVCDIQLNQVSPADFTVLSDVLPMFSVDFSKQVSSSAACHSRQFVPLASGQAQVVLSWWDIEMDPEGKIKCTMAPFWAQTDPQELQWRDHWMQCVYFLPQEEPVVQGSPRCLVAHHDDYCVWYSLQRTSPDENDSAYQVRPVCDCQAHLLWNRPRFGEINDQDRTDHYAQALRTVLLPGSVCLCVSDGSLLSMLAHHLGAEQVFTVESSVASYRLMKRIFKVNHLEDKISVINKRPELLTAADLEGKKVSLLLGEPFFTTSLLPWHNLYFWYVRTSVDQHLAPGAVVMPQAASLHAVIVEFRDLWRIRSPCGDCEGFDVHIMDDMIKHSLDFRESREAEPHPLWEYPCRSLSKPQEILTFDFQQPIPQQPMQSKGTMELTRPGKSHGAVLWMEYQLTPDSTISTGLINPAEDKGDCCWNPHCKQAVYFLSTTLDLRVPLNGPRSVSYVVEFHPLTGDITMEFRLADTLS |
| binds | binds | binds | Myc-tagged CTCFL (full length) (protein, UniProt A2APF3 1-636) MAAAEVPVPSGYFTQIKEQKLKPGDLEEEKEEDGVQRVEAQEGVVKEVEAENSCLLLEARAPVESDRRILTLQTVHLESQDVHLQGLGWLSVPHSEELSGTVPEAEGILQLPSVLWLDPEPQLSLQHCVTVSIPEELYPPEELQRIHFHLLRENVLMAEENPELTPDLDESTALKKPEEDEKDQLPPQGETDKREERLLLLEMKPKEGKDDEIVLTISHLSLEEQQDPPAANQTSVPGAKAAKPKRRRQTKGKPQSFQCDTCPFTSSKLSTFNRHIKIHSNERPHLCHLCLKAFRTVTLLRNHVNTHTGTRPHKCRDCDMAFVTSGELVRHRRYKHTYEKPFKCSLCKYASVEASKMKRHIRSHTGERPFQCCQCAYASRDSYKLKRHMRTHSGEKPYECPTCHVRFTQSGTMKIHIAQKHGENVPKYECPHCATIIARKSDLRVHLRNLHSQSPEEMKCRYCPAGFHERYALIQHQRTHKNEKKFKCKQCDYACKQERCLKAHMRMHTGEKPFSCLACNKHFRQKQLLTVHLRKYHDPNFVPNLHLCLKCDKRFSRWSNLQRHRKKCDPEHETLAPNKDRRPVTRTQASEGEAGHKEGEPQCPGEQALGHQGEAAGSQSPDHGLTCEIIFNMMDK |
